From the supplement of paper PMC5949888
Most values lie at the floor of the assay. Slopes are relative: functional sequences can read slightly below zero.

What follows are substances tested on Saccharomyces cerevisiae PS128 hsf1 delta, HSF1(1-493) fusion (assay: growth estimate (transactivation domain function in HSF1 fusion, heat-shock survival) (a.u. (slope of normalised read count over time)); higher = stronger growth at 37°C, i.e. more transactivation activity). Settings: library: random library.
Experimental: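 Random 60-nt DNA library encoding peptides of up to 20 aa, fused to the C-terminus of yeast HSF1 residues 1-493 (C-terminal TAD deleted) and expressed from the native HSF1 promoter on a CEN plasmid in hsf1-deleted S. cerevisiae PS128. Cells were selected at 37°C on -trp 5-FOA plates for 0, 2, 4, 6 and 8 days and amplicons were sequenced. Growth estimate is the slope of a robust linear fit of total-sum-normalised read counts (normalised to the first time point) over time, using at least 2 replicates. Sequences are classed functional (TAD activity) above a threshold of -0.13, set from stop-codon control sequences.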
Substance RWW has a growth estimate of less than -0.25.
QLHSPRRAVA showed a growth estimate of less than -0.25.
In the case of SMGKPRSDPRHIIACRTVIR, the growth estimate is reported as less than -0.25.
In the case of SRGRSVRTS, the growth estimate is reported as less than -0.25.
GSGTFR gave a growth estimate of less than -0.25.
Substance LAMVRARFLVCYWIDKYY has a growth estimate of -0.245.
For LHKIKDSTFVS, the growth estimate was less than -0.25.
SISISHAVAVGLQ showed a growth estimate of less than -0.25.
For GLRLQL, the growth estimate was less than -0.25.
Substance VLEVSAKTLLGRFTEHGLTS has a growth estimate of less than -0.25.
Substance LAWIRFEYNTAKSTLRSPTS has a growth estimate of less than -0.25.
With VDRHELWCICSR the growth estimate was less than -0.25.
PSSFTRAQRTLIRWSKNNAR showed a growth estimate of less than -0.25.
Substance PGYLTSNSIVGVPFT has a growth estimate of less than -0.25.
SQY showed a growth estimate of less than -0.25.
Substance RRARLWLGRGTYSRVARRGF has a growth estimate of less than -0.25.
QVGTNLQPCYNFIDLPLQVH gave a growth estimate of less than -0.25.
TASRCGECWLARVLTGT showed a growth estimate of less than -0.25.
LCDSSASNGLLCGMIDRSYW showed a growth estimate of -0.25.
Work on ICGDC yielded a growth estimate of less than -0.25.
With FKSDYGSGRIIFILARANKS the growth estimate was less than -0.25.
With CAGNEHKRGKDPPNEW the growth estimate was less than -0.25.
In the case of INRHASGRIHWRCGLCVNRK, the growth estimate is reported as less than -0.25.
Substance CLSLVVARMRAGPLV has a growth estimate of -0.243.
Substance SGSSCDRWR has a growth estimate of less than -0.25.
For KNKETGGPAVHPRHGCSQSH, the growth estimate was less than -0.25.
In the case of SVTTI, the growth estimate is reported as less than -0.25.
For SVKGY, the growth estimate was less than -0.25.
Work on GLSF yielded a growth estimate of less than -0.25.
For GGHFSVYIAITHPDRHSLPP, the growth estimate was less than -0.25.
Substance VNKYGSLESTLRKTLEWMPN has a growth estimate of less than -0.25.
Work on TKISG yielded a growth estimate of less than -0.25.
Work on NFHTNNSSCTCSHLLIGAME yielded a growth estimate of less than -0.25.
For VHPPCTPPSYTWLLGFCVQA, the growth estimate was less than -0.25.
RDRTLSSSGRLYIVIRDRGA gave a growth estimate of less than -0.25.
DPASSLSCAHLRTREWYRDQ showed a growth estimate of less than -0.25.
With YPPTALPRLCA the growth estimate was less than -0.25.
For MSPVTLARISLESGREILKG, the growth estimate was less than -0.25.
With EPLKKMDVTCRGRHLGYAVF the growth estimate was less than -0.25.
For TRSRGSEFKKFRGGINWASL, the growth estimate was less than -0.25.
In the case of RSRGIVWDFVVSLGSSISPQ, the growth estimate is reported as less than -0.25.
IRYPSDPVFLCLNVSKGTTD showed a growth estimate of less than -0.25.
With VNAQS the growth estimate was less than -0.25.
Work on VVPPGWMGVLPVTHANSQEI yielded a growth estimate of less than -0.25.
With VRRVIAEDGVH the growth estimate was less than -0.25.
Substance GLSLAPTRTGRGSLAVTMMN has a growth estimate of less than -0.25.
In the case of FSLGFGTVPQSTGALTS, the growth estimate is reported as less than -0.25.
Substance LNSLAVNCFTGSRESCLVTQ has a growth estimate of less than -0.25.
ILLPCDVDAEHV showed a growth estimate of less than -0.25.
Work on STVLSDHIRGMCPELPLLVS yielded a growth estimate of less than -0.25.
With GSPEMREAELVSDSAT the growth estimate was less than -0.25.
In the case of TSMNVTFDLDPGLFVTVFAG, the growth estimate is reported as less than -0.25.
With KGFSEVESPGGF the growth estimate was less than -0.25.
Work on VPIHRCFVCVMVFYSPLPES yielded a growth estimate of less than -0.25.
TRTDNRCA showed a growth estimate of less than -0.25.
VVQVDHRFEHGAGSRGPESR was tested, and the growth estimate was less than -0.25.
Work on LVAVVR yielded a growth estimate of less than -0.25.
QLCLWQLIVLAQRSPRLRQI showed a growth estimate of less than -0.25.
ARRYLR was tested, and the growth estimate was -0.198.
With HAVEAS the growth estimate was less than -0.25.
Work on KECTMARHGAPVLGFFKSGF yielded a growth estimate of less than -0.25.
HLGIGLDTGWSEI showed a growth estimate of less than -0.25.
For VRTVGTG, the growth estimate was less than -0.25.
With GYAQPTGTEFLCTLICWIGP the growth estimate was -0.237.
Work on SLRPLLINCLIAFRPHGR yielded a growth estimate of less than -0.25.
With GDAPACGLRTM the growth estimate was less than -0.25.
In the case of PETRIVFENSGVTSGNAPFN, the growth estimate is reported as less than -0.25.
For EHVGLLCSWIL, the growth estimate was less than -0.25.
In the case of SMVAEMNVLTLPLR, the growth estimate is reported as less than -0.25.
Substance PNGARRIVL has a growth estimate of less than -0.25.
RVSTVTGPRKPRAFRKVK gave a growth estimate of less than -0.25.
Substance STRVRPPIVHAFVIGTSGRP has a growth estimate of less than -0.25.
PGIRESTKGRRNQLQNTPCH gave a growth estimate of less than -0.25.
In the case of LKIYLSQEDLRGVAFGSSWF, the growth estimate is reported as -0.0317.
QRRRKKWYVHVSLIASQTHE was tested, and the growth estimate was less than -0.25.
With SCGRTQGRSHLL the growth estimate was less than -0.25.
YISQLDLCNGVGNLF gave a growth estimate of less than -0.25.
Substance GFGL has a growth estimate of less than -0.25.
Work on LRVLRP yielded a growth estimate of less than -0.25.
With KTVTDCLCCGSANGEPTRRG the growth estimate was less than -0.25.
RRSHTRCLYLVSELWMDRAS showed a growth estimate of less than -0.25.
GEYVKTCEFSLVAIMFAISL was tested, and the growth estimate was less than -0.25.
In the case of RGGRLKSAGLERSSTVDLPM, the growth estimate is reported as less than -0.25.
Work on VGFFPIDEFMPNCAIIYCRP yielded a growth estimate of less than -0.25.
Work on YLTMGGWEFHECNLIEWSRG yielded a growth estimate of less than -0.25.
In the case of SKYGLTTVFGTGRSNSHFRP, the growth estimate is reported as less than -0.25.
For RSGRGKKRTISKQGFNRLEG, the growth estimate was less than -0.25.
EIHSACEVGVGVLQMIRCRP gave a growth estimate of less than -0.25.
RSCLAVTVCYSP was tested, and the growth estimate was less than -0.25.
With GTECQEDCLQILGLSSSWIL the growth estimate was less than -0.25.
FGRLLKTVGKRELDAAHAV was tested, and the growth estimate was less than -0.25.
HSRGSGRFG showed a growth estimate of less than -0.25.
For SFL, the growth estimate was less than -0.25.
PPDAKGVA showed a growth estimate of less than -0.25.
DRTPIA was tested, and the growth estimate was less than -0.25.
Work on WRGRNARNNNITLL yielded a growth estimate of less than -0.25.
RLRGSACETATTHGVRWVCL was tested, and the growth estimate was less than -0.25.
Work on SGPLRDSSLPRRVRNNRQGR yielded a growth estimate of less than -0.25.
Work on QIKLLLGFSLI yielded a growth estimate of less than -0.25.
GIQVFSL was tested, and the growth estimate was -0.237.
LRGVPAHSQALRSSAVVTLY showed a growth estimate of less than -0.25.
With SFQLRPPLLDATWTRLNRRS the growth estimate was less than -0.25.
With AIECEN the growth estimate was less than -0.25.
Substance RLPTVSTSW has a growth estimate of less than -0.25.
In the case of RTRKAYSIHM, the growth estimate is reported as less than -0.25.
Substance LRELTCCSPMCSFCHQYNTR has a growth estimate of less than -0.25.
For AYIKTLSRGKPCVITQGI, the growth estimate was less than -0.25.
Substance GAST has a growth estimate of less than -0.25.
Substance LVGMLTRRP has a growth estimate of less than -0.25.
Substance SEPLGCPPVNTHL has a growth estimate of less than -0.25.
TTTF was tested, and the growth estimate was less than -0.25.
In the case of RLASLPGFLDSRQAFTPCLP, the growth estimate is reported as less than -0.25.
SSLLGALGYRANPPMALHTC gave a growth estimate of less than -0.25.
ARVDIVGFTSLL was tested, and the growth estimate was less than -0.25.
Substance GSIPPIRCGYRGLGDHTRAS has a growth estimate of less than -0.25.
SHICLTCRGPIQLL showed a growth estimate of -0.246.
Work on VVTCVNVATLRSP yielded a growth estimate of less than -0.25.
For GASREDLVVNSFMALCGTSP, the growth estimate was less than -0.25.
HLTAVF showed a growth estimate of less than -0.25.
PNNACCGISEAGLSKS was tested, and the growth estimate was less than -0.25.
In the case of NTQQFLIQFWE, the growth estimate is reported as less than -0.25.
With SWLGVICRSSASSLIIRDRF the growth estimate was -0.0983.
Work on GVTYFQRNLTTSNALCCGLT yielded a growth estimate of less than -0.25.
TRAPRAQNHMHFLSLRTTPN gave a growth estimate of less than -0.25.
FVIDFDSFMSAYKRECHISF gave a growth estimate of less than -0.25.
QRSSININI gave a growth estimate of less than -0.253.
With EFDAQHGQA the growth estimate was less than -0.25.
For IRSRSGAG, the growth estimate was less than -0.25.
In the case of VHPNSLVPAKQVSAH, the growth estimate is reported as less than -0.25.
In the case of FSDISRNLSILCSMHEV, the growth estimate is reported as less than -0.25.
With HEALLIQSIVYSRHHCNSDR the growth estimate was less than -0.25.
In the case of AYSVDPNYA, the growth estimate is reported as less than -0.25.
With ATRQAVDEFPPGIV the growth estimate was less than -0.25.
LLRTLFGCNLWKHPAAASLP showed a growth estimate of less than -0.25.
In the case of FSNYLTLRRGR, the growth estimate is reported as less than -0.25.
GLSQAEMF gave a growth estimate of less than -0.25.
SLD was tested, and the growth estimate was less than -0.25.
IFCCRPRKCFRFPGTMDDVD gave a growth estimate of less than -0.25.
Work on PVGVSRWFYIRGSATTQRGP yielded a growth estimate of less than -0.25.
In the case of SFNR, the growth estimate is reported as less than -0.25.
RQTEIE showed a growth estimate of less than -0.25.
Substance TVIRRCVRQSGQHGGTHVGP has a growth estimate of -0.245.
PLQRNVSNDVMCP showed a growth estimate of less than -0.25.
LETCARCSGDVFGLDRDRYH gave a growth estimate of less than -0.25.
Substance VQVPTVA has a growth estimate of less than -0.25.
TPSLATSCNTPWTVLSPVHF gave a growth estimate of 3.19.
With PFCARLGRISWVTPC the growth estimate was less than -0.25.
In the case of HRQSLKERFR, the growth estimate is reported as less than -0.25.
Substance LFPNARL has a growth estimate of less than -0.25.
Substance YANCRRNIQTP has a growth estimate of less than -0.25.
Work on MPRCF yielded a growth estimate of less than -0.25.
EKVRI was tested, and the growth estimate was less than -0.25.
MGECF showed a growth estimate of less than -0.25.
